Assay results

The results are deposited in PubChem (AID1053133; Broad Institute, 2014).

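Vaccinia-infected cells with a two-color viral stage reporter; Venus fluorescence read on a plate reader; the cell line is not named here; timing not stated here.
The test concentration is not given here.
Percent change in Venus reporter signal; lower (more negative) values mean stronger inhibition of that viral stage.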

Values are in %.
The controls that fix the scale are not given here.
Common to all entries: measured here: Venus reporter, other viral stage.
Part of the compounds only, not a random draw; the main read-out is not listed here.

CN1CCCCN2[C@H](CO)[C@H](c3ccc(C#Cc4ccccc4F)cc3)[C@@H]2C1 read activity change (Venus) -40.15%. Result for COc1ccc2c3c(n(C)c2c1)[C@@H](CO)N(C(=O)Nc1ccc(F)cc1)CC31CCN(C(=O)c2ccccc2F)CC1 was activity change (Venus) -34.04%. C[C@H](CO)N1C[C@H](C)[C@H](CN(C)Cc2ccc(C(F)(F)F)cc2)Oc2ccc(NC(=O)NC3CCCCC3)cc2C1=O gave activity change (Venus) -30.55%. O=C(Nc1cc(F)ccc1F)N1CC(=O)N2[C@@H](CO)[C@@H](c3ccc(C#CC4CCCCC4)cc3)[C@@H]2C1 gave activity change (Venus) -57.31%. For C[C@@H]1CN([C@@H](C)CO)C(=O)Cc2cc(NS(=O)(=O)c3cccs3)ccc2O[C@H]1CN(C)Cc1ccc(Cl)c(Cl)c1 the result was activity change (Venus) -90%. For CN1c2ccc(-c3ccccc3)cc2[C@H]2[C@H](CCN2C(=O)c2ccccc2F)[C@H]1CO the result was activity change (Venus) -60.94%. C[C@@H]1CCCCO[C@@H](CN(C)Cc2ccc(C(F)(F)F)cc2)[C@@H](C)CN([C@@H](C)CO)C(=O)c2cc(NS(=O)(=O)c3ccc(F)cc3)ccc2O1 read activity change (Venus) -56.05%. For C[C@@H]1CCCCO[C@H](CN(C)Cc2ccc3c(c2)OCO3)[C@H](C)CN([C@@H](C)CO)C(=O)c2cc(NS(=O)(=O)c3ccccc3)ccc2O1 the result was activity change (Venus) -35.1%.

CC(C)C#Cc1ccc([C@H]2[C@@H](CO)N3CCCCN(C(=O)c4ccc5c(c4)OCO5)C[C@H]23)cc1 read activity change (Venus) -48.94%. Result for C[C@H]1CCCCO[C@H](CN(C)Cc2ccc3c(c2)OCO3)[C@@H](C)CN([C@@H](C)CO)C(=O)c2cc(NC(=O)c3ccccc3)ccc2O1 was activity change (Venus) -48.19%. With C[C@@H]1CCCCO[C@H](CN(C)Cc2ccc3c(c2)OCO3)[C@H](C)CN([C@@H](C)CO)C(=O)c2cc(NS(=O)(=O)c3ccc(Cl)cc3)ccc2O1 the assay gave activity change (Venus) -58.7%. For COc1ccc(CN2[C@H](CO)[C@H]3c4ccccc4N(C(=O)Nc4ccc(F)cc4)C[C@H]32)cc1 the result was activity change (Venus) -47.43%. For C[C@@H]1CCCCO[C@@H](CN(C)Cc2ccccc2)[C@H](C)CN([C@H](C)CO)C(=O)c2cc(NS(=O)(=O)c3cccs3)ccc2O1 the result was activity change (Venus) -39.8%. With COc1ccc2c3c(n(C)c2c1)[C@H](CO)N(C(=O)Nc1ccc(F)cc1)CC31CCN(C)CC1 the assay gave activity change (Venus) -41.66%. O=C(C1CCCCC1)N1CC(=O)N2[C@@H](CO)[C@@H](c3ccc(C#Cc4cccc(F)c4)cc3)[C@@H]2C1 read activity change (Venus) -65.28%. COc1ccc(CN(C)C[C@H]2OCCCC[C@@H](C)Oc3ccc(NS(=O)(=O)c4ccccc4)cc3C(=O)N([C@H](C)CO)C[C@H]2C)cc1 read activity change (Venus) -33.47%.

Result for CCC(=O)N1CC2(CCN(Cc3ccccc3Cl)CC2)c2c([nH]c3cc(OC)ccc23)[C@H]1CO was activity change (Venus) -57.02%. CC(C)CC#Cc1ccc2c(c1)O[C@H](CN(C)Cc1ccc3c(c1)OCO3)[C@H](C)CN([C@H](C)CO)S2(=O)=O gave activity change (Venus) -36.18%. For C[C@@H]1CN([C@@H](C)CO)C(=O)c2cc(NS(=O)(=O)c3ccccc3)ccc2O[C@@H](C)CCCCO[C@H]1CN(C)C(=O)C1CCCCC1 the result was activity change (Venus) -36.2%. OC[C@H]1CC[C@@H]2O[C@H](CCc3ccc(-c4ccc(F)cc4)cc3)[C@H](n3cc(C4CC4)nn3)C[C@@H]2O1 gave activity change (Venus) -52.42%. Result for CC(C)C#Cc1ccc2c(c1)O[C@H](CN(C)C(=O)Nc1ccccc1)[C@H](C)CN([C@@H](C)CO)S2(=O)=O was activity change (Venus) -53.13%. For Cc1noc(C)c1S(=O)(=O)N(C)C[C@H]1OCc2ccccc2-c2c(n(C)c3ccccc23)C(=O)N([C@@H](C)CO)C[C@@H]1C the result was activity change (Venus) -28.11%. For C[C@@H]1CN([C@H](C)CO)C(=O)c2cc(NS(=O)(=O)c3ccc(F)cc3)ccc2O[C@@H](C)CCCCO[C@@H]1CN(C)C(=O)c1ccccc1 the result was activity change (Venus) -43.92%. For C[C@@H]1CN([C@H](C)CO)C(=O)c2cc(NC(=O)CCCN(C)C)ccc2O[C@@H](C)CCCCO[C@@H]1CN(C)Cc1ccc(C(F)(F)F)cc1 the result was activity change (Venus) -67.17%.

Result for CCC(=O)N1CCCCN2[C@H](CO)[C@H](c3ccc(/C=C/c4ccccc4)cc3)[C@H]2C1 was activity change (Venus) -56.91%. Result for COc1ccccc1CN1CC[C@@H]2[C@H]1c1cc(C#Cc3ccccc3)ccc1N[C@@H]2CO was activity change (Venus) -50.53%. With C[C@H](CO)N1C[C@H](C)[C@@H](CN(C)S(=O)(=O)c2ccc(F)cc2)OCCCC[C@H](C)Oc2ccc(NS(=O)(=O)c3ccccc3)cc2C1=O the assay gave activity change (Venus) -44.52%.

Once more, the final 2:

| structure | activity change (Venus) (%) |
|---|---|
| `COc1ccccc1CN1CC[C@@H]2[C@H]1c1cc(C#Cc3ccccc3)ccc1N[C@@H]2CO` | -50.53 |
| `C[C@H](CO)N1C[C@H](C)[C@@H](CN(C)S(=O)(=O)c2ccc(F)cc2)OCCCC[C@H](C)Oc2ccc(NS(=O)(=O)c3ccccc3)cc2C1=O` | -44.52 |